Patent publication US20140107219A1, “LOCAL ANAESTHETIC” (VITA (EUROPE) LIMITED, priority 2011, published 2014)
Read-outs that look alike come from different tables or passages of the source. The name of at least one read-out is uncertain.

Tested on: isolated sciatic nerve of the rat
Test: Evoked compound action potential (CAP) of the isolated rat sciatic nerve in a three-chamber bath (ex vivo): inhibition and recovery after washout

Work on `CCCCC(C)=O` [2-hexanone, reference compound] yielded an IT50 of 74.42 ± 0.79 s and an IT50 (listed as 2-Hexanone) of 74.42 ± 0.79 s.
